Assay results reported in paper PMC6648352.
These are yes or no findings as the source states them, for the method shown. Binding seen in cells or lysates may run through a third protein. Binding can be weak; no strength is given.

Amino acid sequences for entries named in this document (tags omitted). A change or cut given only in a name is not applied to a line headed by its entry.
UniProt Q388B3: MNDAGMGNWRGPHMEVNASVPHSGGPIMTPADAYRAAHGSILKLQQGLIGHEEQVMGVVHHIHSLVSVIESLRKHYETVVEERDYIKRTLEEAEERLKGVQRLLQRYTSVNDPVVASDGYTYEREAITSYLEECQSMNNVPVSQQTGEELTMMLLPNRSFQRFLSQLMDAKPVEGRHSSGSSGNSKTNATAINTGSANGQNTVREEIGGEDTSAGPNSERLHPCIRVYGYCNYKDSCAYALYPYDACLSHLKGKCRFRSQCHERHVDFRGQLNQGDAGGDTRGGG
UniProt Q388B1: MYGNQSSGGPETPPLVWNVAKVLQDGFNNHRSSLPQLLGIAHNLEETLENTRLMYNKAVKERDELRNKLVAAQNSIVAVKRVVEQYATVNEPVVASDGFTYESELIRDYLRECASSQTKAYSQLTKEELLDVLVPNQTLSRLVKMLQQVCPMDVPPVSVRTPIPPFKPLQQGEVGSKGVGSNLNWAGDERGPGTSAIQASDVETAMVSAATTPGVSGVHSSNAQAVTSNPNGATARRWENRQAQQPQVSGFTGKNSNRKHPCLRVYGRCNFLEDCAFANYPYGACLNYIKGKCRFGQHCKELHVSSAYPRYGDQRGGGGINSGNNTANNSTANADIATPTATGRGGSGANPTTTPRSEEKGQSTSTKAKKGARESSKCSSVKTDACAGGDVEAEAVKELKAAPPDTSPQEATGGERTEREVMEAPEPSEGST

Target: ZC3H39^GFP (Trypanosoma brucei) (UniProt Q388B3)
Assay: co-IP; lysate of dual-tagged bloodstream form T. brucei (2 x 10^8 cells; 20 mM Tris-Cl pH 8.0, 400 mM NaCl, 1 mM EDTA, 0.5% NP-40, 10% glycerol, 1 mM DTT); IP with anti-GFP magnetic beads, at least 1 h at 4°C; blots with anti-GFP and anti-myc; control strain expressing only ZC3H40^myc

- binding: binds
Substance: ZC3H40^myc (from UniProt Q388B1)
